{"source": "patent US8101389B2", "about": "“Bacterial glutamine synthetases and methods of use” (Athenix Corp, priority 2006, dated 2012)", "format_in_all_cases": "biochemical", "conditions_in_all_cases": "Table 5", "key": {"[1]": {"target": "E. coli glutamine synthetase GlnA (Escherichia coli, UniProt P0A9C5)", "test": "enzymatic assay, kinetics of E. coli GlnA"}, "[2]": {"target": "Serratia marcescens glutamine synthetase AGS1 variant AGS1(AD-), tyrosine 398 to phenylalanine, SEQ ID NO:44 (Serratia marcescens, UniProt A0A0F6KS08, Y398F)", "test": "enzymatic assay, kinetics of AGS1(AD-)", "experimental": "ags1(ad-) (SEQ ID NO:43) encoding the AGS1(AD-) protein (SEQ ID NO:44), is a variant of ags1 in which the putative adenylylation site has been removed by mutating the tyrosine at position 398 of AGS1 to a phenylalanine by site directed mutagenesis.\n(§1) The unmodified enzyme (AGS1) was compared to AGS1(AD-) and AGS1m17(AD-) by carrying out enzymatic assays on both enzymes following purification from E. coli. A glutamine synthetase enzyme from E. coli (GlnA) was also tested."}, "[3]": {"target": "Serratia marcescens glutamine synthetase AGS1 variant AGS1m17(AD-), F81S, P185S, H212T, V214A, G218S, I303N plus tyrosine 398 to phenylalanine, SEQ ID NO:46 (Serratia marcescens, UniProt A0A0F6KS08, F81S/G218S/H212T/I303N/P185S/V214A/Y398F)", "test": "enzymatic assay, kinetics of AGS1m17(AD-)", "experimental": "ags1m17(ad-) (SEQ ID NO:45) encoding the AGS1m17(AD-) protein (SEQ ID NO:46), is a variant of ags1m17 in which the putative adenylylation site has been removed by mutating the tyrosine at position 398 of AGS1 to a phenylalanine by site directed mutagenesis.\nas §1"}}, "note": "For at least one compound, name, drawing or mass did not settle the structure."}
{"smiles": "N[C@@H](CCC(=O)O)C(=O)O", "note": "[glutamate]", "values": [{"measurement": "Kcat", "setting": "[1]", "value": 0.21, "unit": "s⁻¹"}, {"measurement": "Vmax", "setting": "[1]", "value": 0.24, "unit": "nmol/min/µg"}, {"measurement": "Kcat", "setting": "[2]", "value": 3.29, "unit": "s⁻¹"}, {"measurement": "Vmax", "setting": "[2]", "value": 3.8, "unit": "nmol/min/µg"}, {"measurement": "Kcat", "setting": "[3]", "value": 0.07, "unit": "s⁻¹"}, {"measurement": "Vmax", "setting": "[3]", "value": ".0078 nmol/min/µg"}]}
